Reference: patent US20090018093
For at least one entry, the source does not settle the construct or the ends of the probe. A negative result means that nothing was seen under these conditions.

Chains of the proteins cited; added tags and fusions are not shown. A line that says so, or that is headed by a name, gives the form on record, which may keep a tag or linker.
Immunoglobulin E (IgE) (Homo sapiens), one chain, as listed by the source: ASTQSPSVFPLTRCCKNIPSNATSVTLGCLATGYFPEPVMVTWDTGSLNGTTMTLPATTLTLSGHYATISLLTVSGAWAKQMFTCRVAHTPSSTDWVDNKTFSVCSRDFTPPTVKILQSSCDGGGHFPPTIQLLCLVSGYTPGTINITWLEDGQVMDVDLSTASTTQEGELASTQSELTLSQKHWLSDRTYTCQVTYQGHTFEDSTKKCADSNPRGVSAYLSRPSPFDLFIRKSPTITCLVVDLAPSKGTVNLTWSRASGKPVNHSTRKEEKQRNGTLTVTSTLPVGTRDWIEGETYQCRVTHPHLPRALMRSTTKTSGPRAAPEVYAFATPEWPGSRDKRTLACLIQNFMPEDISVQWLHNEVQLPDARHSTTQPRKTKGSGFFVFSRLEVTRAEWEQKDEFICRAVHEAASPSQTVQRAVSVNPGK

These sequences were tested on Immunoglobulin E (IgE) (Homo sapiens) (assay: filter binding). Conditions: 2'-F C and U; no significant binding; purified native protein.

Q: Does “GGGAAAAGCGAAUCAUACACAAGAGAGUGGAGGAGGUAUGUAUGGUUUGUGCGUCUGGUGCGGUGCUCCGCCAGAGACCAACCGAGAA [rRfY clone SEQ 22]” bind?
A: Result: no binding

Same assay, conditions: 2'-OMe C,U; deoxy A,G; no significant binding up to 300 nM IgE with tRNA, ssDNA; purified native protein

Q: Does “GGGAGAGGAGAGAACGUUCUACGGGGUUACGUCGCACGAUACAUGCAUUCAUCGCUGUCGAUCGAUCGAUCGAUG [dRmY clone SEQ 48]” bind?
A: Result: no binding

Q: Does “GGGAGAGGAGAGAACGUUCUACGAUUAGCAGGGAGGGAGAGUGCGAAGAGGACGCUGUCGAUCGAUCGAUCGAUG [dRmY clone SEQ 28]” bind?
A: Result: no binding

Q: Does “GGGAGAGGAGAGAACGUUCUACGAGGUGUAGGGAUAGAGGGGUGUAGGUAACGCUGUCGAUCGAUCGAUCGAUG [dRmY clone SEQ 35]” bind?
A: Result: no binding

Q: Does “GGGAGAGGAGAGAACGUUCUACUGGGGGGCGUGUUCAUUAGCAGCGUCGUGUCGCUGUCGAUCGAUCGAUCGAUG [dRmY clone SEQ 32]” bind?
A: Result: no binding

Q: Does “GGGAGAGGAGAGAACGUUCUACUAGCGAGGAGGGGUUUUCUAUUUUUGCGAUCGCUGUCGAUCGAUCGAUCGAUG [dRmY clone SEQ 49]” bind?
A: Result: no binding

Q: Does “GGGAGAGGAGAGAACGUUCUACGAGGUGAGGGUCUACAAUGGAGGGAUGGUCGCUGUCGAUCGAUCGAUCGAUG [dRmY clone SEQ 30]” bind?
A: Result: no binding

Q: Does “GGGAGAGGAGAGAACGUUCUACAGGGAGAGAGUGUUGAGUGAAGAGGAGGAGUCGCUGUCGAUCGAUCGAUCGAUG [dRmY clone SEQ 40]” bind?
A: Result: no binding

Q: Does “GGGAGAGGAGAGAACGUUCUACGUAUUAGGGGGGAAGGGGAGGAAUAGAUCACGCUGUCGAUCGAUCGAUCGAUG [dRmY clone SEQ 39]” bind?
A: Result: no binding

Q: Does “GGGAGAGGAGAGAACGUUCUACAGGAGUGGAGCUACAGAGAGGGUUAGGGGUCGCUGUCGAUCGAUCGAUCGAUG [dRmY clone SEQ 36]” bind?
A: Result: no binding

Q: Does “GGGAGAGGAGAGAACGUUCUACGGAUGUUGGGAGUGAUAGAAGGAAGGGGAGCGCUGUCGAUCGAUCGAUCGAUG [dRmY clone SEQ 37]” bind?
A: Result: no binding

Q: Does “GGGAGAGGAGAGAACGUUCUACUUGGGGUGGAAGGAGUAAGGGAGGUGCUGAUCGCUGUCGAUCGAUCGAUCGAUG [dRmY clone SEQ 38]” bind?
A: Result: no binding

Q: Does “GGGAGAGGAGAGAACGUUCUACGAGUGGAUAGGGAAGAAGGGGAGUAGUCACGCUGUCGAUCGAUCGAUCGAUG [dRmY clone SEQ 45]” bind?
A: Result: no binding

Q: Does “GGGAGAGGAGAGAACGUUCUACGGGAUGGGUAGUUGGAUGGAAAUGGGAACGCUGUCGAUCGAUCGAUCGAUG [dRmY clone SEQ 34]” bind?
A: Result: no binding

Same assay, conditions: 2'-OMe at 1-5,33-37; 3' idT [2'-OMe: 1-5,33-37; 38 = 3' inverted dT]; No Binding; DPBS Mg/Ca, BSA; purified native protein; single-stranded DNA; letters built from the parent sequence and the stated change

Q: Does “GGGGCTACTTTATCCGTTCCTCCTAGTGGGTAGCCCCT [ARC1305]” bind?
A: Result: no binding

Same assay, conditions: dRmY: 2'-deoxy A,G; 2'-OMe C,U; N.B.; purified native protein; variant of ARC1991

Q: Does UUCUGGGGACCCAUGGGGGAA [ARC441] bind?
A: Result: no binding

Same assay, conditions: dRmY: 2'-deoxy A,G; 2'-OMe C,U; N.B.; purified native protein; variant of ARC1994

Q: Does GCCUGGGGAACCAUGGGGGGC [ARC447] bind?
A: Result: no binding

Same assay, conditions: dRmY: 2'-deoxy A,G; 2'-OMe C,U; no significant binding; purified native protein; variant of ARC445

Q: Does AGCUGUGGAGUCGUGUGGGGCU [ARC669] bind?
A: Result: no binding

Q: Does AGCCUGGGGACCCAUGGGGGGUGGU [ARC667] bind?
A: Result: no binding

Q: Does AGCCUGGUGGCCCAUGGGGUGCU [ARC666] bind?
A: Result: no binding

Q: Does CGCCUGGGGACCCAGGGGGGGCU [ARC665] bind?
A: Result: no binding

Q: Does AGUCUGGGGACAGAUGGAUGGCU [ARC668] bind?
A: Result: no binding

Q: Does AGCCUGGGGACCCAUGGGGGCU [ARC664] bind?
A: Result: no binding

Q: Does AAGCCUGGGGACCCAUGGGGGGGCU [ARC670] bind?
A: Result: no binding

Same assay, conditions: h-IgE titration 30 pM-30 nM; purified native protein; single-stranded DNA

Q: Does “GGGGCACGTTTATCCGTCCCTCCTAGTGGCGTGCCCC [D17.4]” bind?
A: Result: binds

Same assay, conditions: no binding at 5 and 50 nM h-IgE; purified native protein; single-stranded DNA; variant of D17.4

Q: Does “GGGGTACATTTATCCGTCCCTCCTAGTGGCATGCCCC [DNA clone SEQ 125]” bind?
A: Result: no binding

Q: Does “GGGGCACGTTTACAGTCCCTCCTTATCGCCTCCC [DNA clone SEQ 138]” bind?
A: Result: no binding

Q: Does “GGGGCACGTTTACAGTCCCTCCTTATCGCCTCCC [DNA clone SEQ 137]” bind?
A: Result: no binding
